Values of other authors as cited in patent US7678393B1, “Mixture composition and method useful for topical and internal application” (DB Laboratories LLC, priority 2006, dated 2010).
At least one structure is not confirmed: it was looked up by name or label, or the drawing left a doubt.

Test system: human cancer cell

In the case of `O=C(OC[C@H]1O[C@@H](OC(=O)c2cc(O)c(O)c(O)c2)[C@H](OC(=O)c2cc(O)c(O)c(O)c2)[C@@H](OC(=O)c2cc(O)c(O)c(O)c2)[C@@H]1OC(=O)c1cc(O)c(O)c(O)c1)c1cc(O)c(O)c(O)c1` [pentagalloylglucose], the apoptosis (human cancer cell) is given as “induce apoptosis” and the “human cancer cell division” value (low concentrations) is given as “arrests human cancer cell division at low concentrations”.
